Library screen at single concentrations

From ChEMBL document CHEMBL3988442, “University of Dundee, Small-Polar-MMV Screening Library” (2021).

Mtb cholesterol medium: 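Growth of Mycobacterium tuberculosis over 4 days (cholesterol / DPPC medium with tyloxapol); the read-out is not stated. Concentration: 50 µM. Direction is inferred from retests: higher values go with more growth inhibition. Of about 69,000 compounds tested this way, about 370 (0.54%) reached 50% or more in at least one test.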
Mtb glucose medium: 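Phenotypic screen: M. tuberculosis growth, glucose 7H9 medium, 3 days; the read-out is not stated. Tested at 50 µM. Direction is inferred from retests: higher values go with more growth inhibition. Size under these conditions: about 69,000 compounds, about 760 of them at 50% or above in at least one test.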

The filed quantity is “Percent Effect” (%). How 0% and 100% were set is not recorded. Most values in the screen are low, and negative values occur. Compounds were drawn at random from those tested, without regard to their results. Two or more numbers in one place are separate tests of the same structure; such repeats can differ widely.

- Cc1noc(C)c1CN1Cc2nccn2CC(CN2CCOCC2)C1.O=C(O)C(F)(F)F.O=C(O)C(F)(F)F (centres unmarked) : Mtb cholesterol medium: -3.939%; Mtb glucose medium: 7.542%
- O=C(O)C(F)(F)F.O=C(O)C(F)(F)F.O=C(O)C(F)(F)F.[H][C@@]12C[C@@H](Oc3cccnc3)CN1CCN(Cc1cccc(C)n1)C2 : Mtb cholesterol medium: -9.332%; Mtb glucose medium: 32.99% & -0.4599%
- [H][C@@]12CS(=O)(=O)C[C@]1([H])N(C(=O)NCCc1ccc(F)cc1)CCN2C : Mtb cholesterol medium: -9.005%; Mtb glucose medium: -17.12%
- O=C(NCCCO)c1nc(-c2ccc3cc[nH]c3c2)no1 : Mtb cholesterol medium: -6.287%; Mtb glucose medium: -8.461%
- COc1cc(OC)cc(N2CCC(NCc3ccsc3)C2=O)c1 (centres unmarked) : Mtb cholesterol medium: 0.5439% & 11.56%; Mtb glucose medium: -3.305%
- Cc1ccc(C(=O)O)cc1CNC(=O)CN1CC[C@](C)(O)C(C)(C)C1 : Mtb cholesterol medium: -1.289%; Mtb glucose medium: -12.34%
- [H][C@@]12CCN(C[C@@H]1c1cc(-c3cccs3)nn1C)[C@@H](CNC(=O)NCC)C2 : Mtb cholesterol medium: -5.023%; Mtb glucose medium: 17.03% & 6.289%
- CCc1ccc(C(=O)N2CCC(O)(CN3CCOCC3)C(C)(C)C2)[nH]1 (centres unmarked) : Mtb cholesterol medium: 4.566%; Mtb glucose medium: -29.28% & -3.401%
- COc1ccc2c(c1)C(C(=O)N(C)CCc1scnc1C)CC(=O)N2 (centres unmarked) : Mtb cholesterol medium: -6.624%; Mtb glucose medium: -18.79%
- CC(C)NC(=O)CNC(=O)OC(C)(C)C : Mtb cholesterol medium: 9.307%; Mtb glucose medium: 9.142%
- COCC(=O)N1CCC2(CC1)CC(=O)N(Cc1ccc(Cl)cc1)C2 : Mtb cholesterol medium: 0.4583%; Mtb glucose medium: 2.853% & -17.46%
- CC(=O)N(Cc1ccc(NCc2cnn(C(C)(C)C)c2)cc1)C(C)C : Mtb cholesterol medium: -10.27%; Mtb glucose medium: 1.303%
- O=C(CC1CCCO1)Nc1cccc(N2CCN(CC3CC3)CC2)c1 (centres unmarked) : Mtb cholesterol medium: 1.412%; Mtb glucose medium: 23.57%
- O=C(O)C(F)(F)F.O=C(O)C(F)(F)F.O=C(O)C(F)(F)F.c1c[nH]c(CN2CCC3(CC2)COCCN(CCN2CCCC2)C3)c1 : Mtb cholesterol medium: 16.91%; Mtb glucose medium: -2.616% & 11.59%
- Cc1ccc(SCCCNC(=O)c2cn([C@H]3CC[C@@H](N)CC3)nn2)cc1 : Mtb cholesterol medium: 7.612%; Mtb glucose medium: 1.796%
- CC(C)N1CCN(C(=O)c2[nH]nnc2Nc2ccccc2F)CC1 : Mtb cholesterol medium: -14.96%; Mtb glucose medium: -2.367%
- Cc1cc(Br)ccc1C(=O)N(C)CCNS(C)(=O)=O : Mtb cholesterol medium: 9.992%; Mtb glucose medium: 8.681%
- O=C(NCCc1ccccc1)C1CCN(C(=O)Cn2cncn2)C1 (centres unmarked) : Mtb cholesterol medium: -24.87%; Mtb glucose medium: -37.49%
- O=C1CC(C(=O)NCc2ccccc2Oc2ccccc2F)CCN1 (centres unmarked) : Mtb cholesterol medium: 20.13% & 13.74%; Mtb glucose medium: 20.75%
- CCn1nc(CC(C)C)cc1C(=O)NCCCOC : Mtb cholesterol medium: -19.55%; Mtb glucose medium: -0.808% & -6.207%
- COc1ccc(S(=O)(=O)NCCC(O)c2cccs2)c(C)c1 (centres unmarked) : Mtb cholesterol medium: 1.008%; Mtb glucose medium: 7.699% & 27.24%
- OCCCN1CCOC(c2ccc(F)cc2)C1 (centres unmarked) : Mtb cholesterol medium: 7.43%; Mtb glucose medium: 22.19%
- O=C(O)C(F)(F)F.O=C(O)C(F)(F)F.[H][C@@]12C[C@@H](C(=O)NCC3CC3)C[C@@]1([H])N(Cc1cccnc1)CCO2 : Mtb cholesterol medium: 2.402%; Mtb glucose medium: -4.237%
- O=C(O)C(F)(F)F.[H][C@@]12CN(Cc3ccc(F)cc3)C[C@]1([H])[C@@H]2CC(=O)N1CCCC1 : Mtb cholesterol medium: 19.08%; Mtb glucose medium: -6.006%
- CCc1nc(CC)n(CC(=O)NCc2ccccc2C)n1 : Mtb cholesterol medium: 4.865%; Mtb glucose medium: 8.462%
- CN(C)C(=O)CN1CCC2(CCN(CC3CC3)CC2)C1=O.O=C(O)C(F)(F)F : Mtb cholesterol medium: -22.45%; Mtb glucose medium: -27.18%
- N#Cc1cccc(C(=O)N2CCn3c(Cn4cncn4)cnc3C2)c1 : Mtb cholesterol medium: -19.33%; Mtb glucose medium: -48.63%
- Cc1ccoc1C(=O)NC1CCN(Cc2cccc3ccccc23)CC1 : Mtb cholesterol medium: -8.884%; Mtb glucose medium: 15.92%
- COCc1cc(CC2(NC3CCN(C)CC3)COC2)no1 : Mtb cholesterol medium: -26.97%; Mtb glucose medium: -7.638% & -45.87%
- O=C(O)C(F)(F)F.[H][C@@]12CN(Cc3cccs3)C[C@@]1([H])N(CC1CC1)C(=O)CO2 : Mtb cholesterol medium: 2.171%; Mtb glucose medium: -0.8208%
- [H][C@]12CC[C@@]3(N=C(CC)N(CC(C)C)C3=O)[C@@]1([H])CN(S(=O)(=O)N(C)C)C2 : Mtb cholesterol medium: 4.506%; Mtb glucose medium: 1.167%
- CCn1ncc2c1C(COCC1CC1)CN(S(=O)(=O)N(C)C)C2.O=C(O)C(F)(F)F (centres unmarked) : Mtb cholesterol medium: 3.752%; Mtb glucose medium: 19.19%
- CCOC(=O)C1CC2(CCCC2)N2CCC(=O)N12 (centres unmarked) : Mtb cholesterol medium: 2.645%; Mtb glucose medium: 4.173%
- CCNc1cc2c(nn1)CCN(C(=O)c1ccc(NC3CC3)nc1)C2 : Mtb cholesterol medium: -9.279%; Mtb glucose medium: -14.95%
- CC[C@@H]1N(Cc2ccsc2)CCC[C@]12CCC(=O)N2C.O=C(O)C(F)(F)F : Mtb cholesterol medium: -20.53%; Mtb glucose medium: -19.28%
- NC(=O)C1CCN(Cc2cccc(NC(=O)c3ccsc3)c2)CC1 : Mtb cholesterol medium: 4.451%; Mtb glucose medium: -10.24%
- CC(C)(N)C(=O)N1CCCC1c1cncc(Oc2ccc(F)cc2)n1 (centres unmarked) : Mtb cholesterol medium: 5.091%; Mtb glucose medium: -0.2899%
- O=C(NS(=O)(=O)c1ccc(C2CCCCC2)cc1)C1COCCO1 (centres unmarked) : Mtb cholesterol medium: -7.331%; Mtb glucose medium: -11.88%
- CCOCCCNC(=O)c1nnn(Cc2ccccc2)c1OC : Mtb cholesterol medium: -8.01%; Mtb glucose medium: 9.591%

For reference, 2 entries once more:

* O=C1CC(C(=O)NCc2ccccc2Oc2ccccc2F)CCN1 (centres unmarked) : Mtb cholesterol medium: 20.13% & 13.74%; Mtb glucose medium: 20.75%
* CC[C@@H]1N(Cc2ccsc2)CCC[C@]12CCC(=O)N2C.O=C(O)C(F)(F)F : Mtb cholesterol medium: -20.53%; Mtb glucose medium: -19.28%